Results reported in US20170008959A1.
No constants are given. Whether binding was seen depends on the method and setting. Some entries that bind do so weakly or less than the wild type.

Sequences of proteins named here, by UniProt entry; tags and fusion partners are left off. Residues count along the entry.
UniProt P05067, residues 672-713: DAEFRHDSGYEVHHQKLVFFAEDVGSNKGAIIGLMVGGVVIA

Molecular target: Amyloid Aβ-1-42 oligomer (globulomer), biotinylated (UniProt P05067)
Test: HTRF competition: peptide preincubated with Aβ 1/5 biotin globulomer 800 nM, then sRAGE 1-331 added; blocked partner sRAGE

With LPRHRALRTAPIQPRVWEPVPLEEVQLVVE [AGER-CDP peptide 7] the binding was “binds”.
